Paper PMC9489711
These are yes or no findings as the source states them, for the method shown. Binding seen in cells or lysates may run through a third protein. Some entries that bind do so weakly or less than the wild type. For some of these results: Sequences can lack the tags named with a protein.

Protein sequences, listed by entry. Tags and fused reporters are not part of them.
UniProt Q9NQB0: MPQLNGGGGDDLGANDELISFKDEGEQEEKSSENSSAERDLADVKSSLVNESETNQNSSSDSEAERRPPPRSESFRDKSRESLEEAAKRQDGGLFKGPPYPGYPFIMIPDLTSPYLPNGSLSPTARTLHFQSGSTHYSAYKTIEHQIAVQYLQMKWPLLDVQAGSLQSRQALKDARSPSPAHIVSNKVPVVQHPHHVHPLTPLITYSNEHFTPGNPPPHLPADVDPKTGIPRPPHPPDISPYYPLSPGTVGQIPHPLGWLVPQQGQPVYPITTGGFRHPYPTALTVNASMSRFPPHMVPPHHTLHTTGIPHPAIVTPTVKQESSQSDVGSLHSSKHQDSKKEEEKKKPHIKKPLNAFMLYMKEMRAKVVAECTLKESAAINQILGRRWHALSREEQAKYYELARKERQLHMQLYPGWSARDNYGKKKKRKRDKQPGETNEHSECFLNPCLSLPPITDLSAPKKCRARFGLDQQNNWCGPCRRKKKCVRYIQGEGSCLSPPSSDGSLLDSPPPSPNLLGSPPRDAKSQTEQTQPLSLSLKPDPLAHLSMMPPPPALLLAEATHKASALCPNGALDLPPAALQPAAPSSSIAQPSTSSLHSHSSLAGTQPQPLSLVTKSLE

Columns and labels:
[1] = target: Flag-tagged ZIC5 (zinc finger of the cerebellum 5) (human) (UniProt Q96T25); assay: co-IP; 293T cells with exogenous expression of β-catenin or TCF4, tested with ZIC5 (Supplementary Fig. 3D)
[2] = target: Flag-tagged ZIC5 (zinc finger of the cerebellum 5) (human) (UniProt Q96T25); assay: co-IP; C4-2B and 22RV1 cells transfected with Flag-tagged ZIC5 or control vector; nuclear proteins; primary antibody 4 h at 4 °C, protein A/G beads overnight, western blot
[3] = target: T1, Flag-tagged ZIC5 (zinc finger of the cerebellum 5) (human), Q96T25; assay: as above; settings: remark: other sources report otherwise
T1 chain: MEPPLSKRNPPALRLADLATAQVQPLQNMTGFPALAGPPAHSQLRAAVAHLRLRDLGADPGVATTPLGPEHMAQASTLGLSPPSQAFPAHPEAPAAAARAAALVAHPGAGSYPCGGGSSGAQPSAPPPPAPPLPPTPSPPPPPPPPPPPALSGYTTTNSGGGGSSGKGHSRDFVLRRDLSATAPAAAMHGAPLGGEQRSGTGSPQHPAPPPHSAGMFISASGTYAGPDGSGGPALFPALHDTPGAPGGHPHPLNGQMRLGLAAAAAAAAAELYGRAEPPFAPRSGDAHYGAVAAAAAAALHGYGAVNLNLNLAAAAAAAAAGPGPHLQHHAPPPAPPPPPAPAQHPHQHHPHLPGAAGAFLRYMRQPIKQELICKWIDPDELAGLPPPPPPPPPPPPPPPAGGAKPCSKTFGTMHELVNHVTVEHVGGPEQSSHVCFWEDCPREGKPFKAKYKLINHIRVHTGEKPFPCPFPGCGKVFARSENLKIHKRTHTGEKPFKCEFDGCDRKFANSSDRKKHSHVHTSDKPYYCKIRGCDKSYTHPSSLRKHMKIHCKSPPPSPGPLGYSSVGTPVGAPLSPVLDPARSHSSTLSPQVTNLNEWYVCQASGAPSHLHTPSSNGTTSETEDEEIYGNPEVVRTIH

[4] = target: T1, Flag-tagged ZIC5 (zinc finger of the …); assay: co-IP; 293T cells with exogenous expression of β-catenin or TCF4, tested with ZIC5 (Supplementary Fig. 3D); settings: remark: other sources report otherwise

TCF4 (exogenously expressed in 293T) (from UniProt Q9NQB0 1-619)
binding [1]: binds

transcription factor 4 (TCF4) (endogenous) (from UniProt Q9NQB0 1-619)
binding [2]: binds

B1: β-catenin (endogenous), P35222 1-781 (protein)
chain: MATQADLMELDMAMEPDRKAAVSHWQQQSYLDSGIHSGATTTAPSLSGKGNPEEEDVDTSQVLYEWEQGFSQSFTQEQVADIDGQYAMTRAQRVRAAMFPETLDEGMQIPSTQFDAAHPTNVQRLAEPSQMLKHAVVNLINYQDDAELATRAIPELTKLLNDEDQVVVNKAAVMVHQLSKKEASRHAIMRSPQMVSAIVRTMQNTNDVETARCTAGTLHNLSHHREGLLAIFKSGGIPALVKMLGSPVDSVLFYAITTLHNLLLHQEGAKMAVRLAGGLQKMVALLNKTNVKFLAITTDCLQILAYGNQESKLIILASGGPQALVNIMRTYTYEKLLWTTSRVLKVLSVCSSNKPAIVEAGGMQALGLHLTDPSQRLVQNCLWTLRNLSDAATKQEGMEGLLGTLVQLLGSDDINVVTCAAGILSNLTCNNYKNKMMVCQVGGIEALVRTVLRAGDREDITEPAICALRHLTSRHQEAEMAQNAVRLHYGLPVVVKLLHPPSHWPLIKATVGLIRNLALCPANHAPLREQGAIPRLVQLLVRAHQDTQRRTSMGGTQQQFVEGVRMEEIVEGCTGALHILARDVHNRIVIRGLNTIPLFVQLLYSPIENIQRVAAGVLCELAQDKEAAEAIEAEGATAPLTELLHSRNEGVATYAAAVLFRMSEDKPQDYKKRLSVELTSSLFRTEPMAWNETADLGLDIGAQGEPLGYRQDDPSYRSFHSGGYGQDALGMDPMMEHEMGGHHPGADYPVDGLPDLGHAQDLMDGLPPGDSNQLAWFDTDL
binding [3]: binds

B2: β-catenin (exogenously expressed in 293T), P35222 1-781 (protein)
chain: MATQADLMELDMAMEPDRKAAVSHWQQQSYLDSGIHSGATTTAPSLSGKGNPEEEDVDTSQVLYEWEQGFSQSFTQEQVADIDGQYAMTRAQRVRAAMFPETLDEGMQIPSTQFDAAHPTNVQRLAEPSQMLKHAVVNLINYQDDAELATRAIPELTKLLNDEDQVVVNKAAVMVHQLSKKEASRHAIMRSPQMVSAIVRTMQNTNDVETARCTAGTLHNLSHHREGLLAIFKSGGIPALVKMLGSPVDSVLFYAITTLHNLLLHQEGAKMAVRLAGGLQKMVALLNKTNVKFLAITTDCLQILAYGNQESKLIILASGGPQALVNIMRTYTYEKLLWTTSRVLKVLSVCSSNKPAIVEAGGMQALGLHLTDPSQRLVQNCLWTLRNLSDAATKQEGMEGLLGTLVQLLGSDDINVVTCAAGILSNLTCNNYKNKMMVCQVGGIEALVRTVLRAGDREDITEPAICALRHLTSRHQEAEMAQNAVRLHYGLPVVVKLLHPPSHWPLIKATVGLIRNLALCPANHAPLREQGAIPRLVQLLVRAHQDTQRRTSMGGTQQQFVEGVRMEEIVEGCTGALHILARDVHNRIVIRGLNTIPLFVQLLYSPIENIQRVAAGVLCELAQDKEAAEAIEAEGATAPLTELLHSRNEGVATYAAAVLFRMSEDKPQDYKKRLSVELTSSLFRTEPMAWNETADLGLDIGAQGEPLGYRQDDPSYRSFHSGGYGQDALGMDPMMEHEMGGHHPGADYPVDGLPDLGHAQDLMDGLPPGDSNQLAWFDTDL
binding [4]: binds
